Consider one substance from PMC8993864.

Amino acid sequences for entries named in this document (tags omitted).
UniProt Q96KN1: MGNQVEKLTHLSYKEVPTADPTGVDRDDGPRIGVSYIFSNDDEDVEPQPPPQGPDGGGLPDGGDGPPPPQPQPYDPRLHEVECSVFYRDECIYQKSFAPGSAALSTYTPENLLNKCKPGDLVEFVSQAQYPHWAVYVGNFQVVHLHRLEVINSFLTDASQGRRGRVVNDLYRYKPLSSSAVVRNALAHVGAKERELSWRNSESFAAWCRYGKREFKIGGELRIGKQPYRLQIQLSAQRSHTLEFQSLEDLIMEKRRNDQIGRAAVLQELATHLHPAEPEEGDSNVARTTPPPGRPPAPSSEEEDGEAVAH
UniProt P06748: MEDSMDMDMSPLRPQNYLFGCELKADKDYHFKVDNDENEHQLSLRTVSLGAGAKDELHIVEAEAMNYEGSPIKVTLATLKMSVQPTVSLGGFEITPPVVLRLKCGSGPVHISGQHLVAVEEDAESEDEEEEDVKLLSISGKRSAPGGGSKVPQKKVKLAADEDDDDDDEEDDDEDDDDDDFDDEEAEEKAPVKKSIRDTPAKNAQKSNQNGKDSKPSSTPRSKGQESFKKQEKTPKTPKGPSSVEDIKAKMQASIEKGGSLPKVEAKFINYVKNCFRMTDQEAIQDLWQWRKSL

The test deals with FLAG-FAM84B (pCMV-FLAG-FAM84B) (UniProt Q96KN1). In words: affinity purification with mass spectrometry; cells transfected with pCMV-FLAG-FAM84B (KYSE150 in the results, KYSE450 in the methods); 1 mg lysate protein with anti-FAM84B or anti-IgG and Protein A/G plus-agarose overnight at 4 °C; silver staining, differential bands analysed by MS.

Results are given in words; binding and its absence hold for the method and conditions named. Binding seen in cells or lysates may run through a third protein. These calls come from enrichment with a bait or labelling near it, and not all partners need be listed.

Consider “NPM1, endogenous (from UniProt P06748 1-294)”, for which the binding entry is “binds”.
